Measured values: article PMC12673092
Results are given in words; binding and its absence hold for the method and conditions named. Some binding calls cover weakened binding; strength is not graded here.

Chains of the proteins cited; added tags and fusions are not shown.
UniProt P35637: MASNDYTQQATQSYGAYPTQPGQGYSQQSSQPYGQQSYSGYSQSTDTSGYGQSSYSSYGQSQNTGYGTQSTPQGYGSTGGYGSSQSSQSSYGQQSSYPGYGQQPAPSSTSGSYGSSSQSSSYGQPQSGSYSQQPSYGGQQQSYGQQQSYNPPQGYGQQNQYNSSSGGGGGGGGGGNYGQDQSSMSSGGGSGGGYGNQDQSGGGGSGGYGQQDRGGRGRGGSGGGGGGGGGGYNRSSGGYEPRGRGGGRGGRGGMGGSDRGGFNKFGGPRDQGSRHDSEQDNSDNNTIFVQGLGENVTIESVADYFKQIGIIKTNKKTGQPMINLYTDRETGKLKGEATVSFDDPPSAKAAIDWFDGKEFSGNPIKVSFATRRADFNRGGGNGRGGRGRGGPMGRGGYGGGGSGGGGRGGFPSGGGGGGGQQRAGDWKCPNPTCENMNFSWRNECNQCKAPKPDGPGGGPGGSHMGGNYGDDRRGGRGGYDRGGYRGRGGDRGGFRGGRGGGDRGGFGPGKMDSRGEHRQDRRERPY
UniProt Q01844: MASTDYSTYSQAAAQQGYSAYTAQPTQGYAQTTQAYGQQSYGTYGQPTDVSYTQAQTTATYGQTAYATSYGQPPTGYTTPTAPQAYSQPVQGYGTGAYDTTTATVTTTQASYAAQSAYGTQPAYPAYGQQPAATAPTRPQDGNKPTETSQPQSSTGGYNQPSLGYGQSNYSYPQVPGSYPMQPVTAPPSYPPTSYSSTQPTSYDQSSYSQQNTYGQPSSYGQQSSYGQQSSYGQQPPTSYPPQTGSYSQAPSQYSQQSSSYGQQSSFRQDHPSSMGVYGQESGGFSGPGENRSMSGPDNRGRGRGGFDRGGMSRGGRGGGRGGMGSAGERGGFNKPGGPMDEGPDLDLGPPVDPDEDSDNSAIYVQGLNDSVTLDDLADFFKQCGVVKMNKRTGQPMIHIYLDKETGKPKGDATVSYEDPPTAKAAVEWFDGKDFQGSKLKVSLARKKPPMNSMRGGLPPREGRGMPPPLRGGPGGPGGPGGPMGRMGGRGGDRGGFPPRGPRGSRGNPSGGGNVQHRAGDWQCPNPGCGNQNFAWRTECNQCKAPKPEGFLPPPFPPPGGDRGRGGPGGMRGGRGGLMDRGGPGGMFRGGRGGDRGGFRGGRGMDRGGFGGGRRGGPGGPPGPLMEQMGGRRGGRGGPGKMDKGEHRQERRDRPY

Tests used:
untagged FUS = untagged FUS (UniProt P35637); experiment: dynamic light scattering; self-association into mesoscale clusters at 0.25 uM protein with 60 mM hydrotrope (NaXS or NaTS), ~10 mM KCl, 20 mM HEPES pH 7.4, 24 °C; both purified
EWSR1-SNAP [1] = molecular target: EWSR1-SNAP (UniProt Q01844); experiment: nanoparticle tracking analysis; self-association into mesoscale clusters; 0.25-1 uM protein (0.3 uM EWSR1-SNAP), 10 mM KCl, 20 mM HEPES pH 7.4, 24 °C, recorded ~6-8 min after sample preparation; buffer only and with small amphiphilic molecules; both purified
EWSR1-SNAP [2] = molecular target: EWSR1-SNAP (UniProt Q01844); experiment: dynamic light scattering; self-association into mesoscale clusters; 0.25-1 uM protein (0.3 uM EWSR1-SNAP), ~10 mM KCl, 20 mM HEPES pH 7.4, 24 °C, hydrodynamic diameter followed over 32 min; buffer only and with ATP.Mg2+, nucleotides, phosphates, NaXS, NaTS, HD or TEG; 1 uM FUS-SNAP is said to phase separate; both purified

Substance	binding (untagged FUS)	binding (EWSR1-SNAP [1])	binding (EWSR1-SNAP [2])
untagged FUS (from UniProt P35637 1-526)	no binding (condition: with 60 mM NaTS)	–	–
EWSR1-SNAP (from UniProt Q01844 1-656)	–	binds	binds
